Here are results for two substances from paper doi:10.1101/2023.03.28.534377.

The chains behind the UniProt entries cited, without tags or fusion partners. Where a name states a change or a piece, a line headed by the entry shows the natural chain unless it says otherwise.
UniProt A0QSV9: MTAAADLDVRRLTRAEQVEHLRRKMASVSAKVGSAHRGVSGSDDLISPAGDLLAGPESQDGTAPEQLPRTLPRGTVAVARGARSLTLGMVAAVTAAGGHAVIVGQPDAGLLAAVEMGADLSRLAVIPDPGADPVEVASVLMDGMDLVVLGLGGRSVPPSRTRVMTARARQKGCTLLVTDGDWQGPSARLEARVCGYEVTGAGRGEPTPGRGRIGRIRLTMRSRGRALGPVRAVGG
UniProt A0QSW0: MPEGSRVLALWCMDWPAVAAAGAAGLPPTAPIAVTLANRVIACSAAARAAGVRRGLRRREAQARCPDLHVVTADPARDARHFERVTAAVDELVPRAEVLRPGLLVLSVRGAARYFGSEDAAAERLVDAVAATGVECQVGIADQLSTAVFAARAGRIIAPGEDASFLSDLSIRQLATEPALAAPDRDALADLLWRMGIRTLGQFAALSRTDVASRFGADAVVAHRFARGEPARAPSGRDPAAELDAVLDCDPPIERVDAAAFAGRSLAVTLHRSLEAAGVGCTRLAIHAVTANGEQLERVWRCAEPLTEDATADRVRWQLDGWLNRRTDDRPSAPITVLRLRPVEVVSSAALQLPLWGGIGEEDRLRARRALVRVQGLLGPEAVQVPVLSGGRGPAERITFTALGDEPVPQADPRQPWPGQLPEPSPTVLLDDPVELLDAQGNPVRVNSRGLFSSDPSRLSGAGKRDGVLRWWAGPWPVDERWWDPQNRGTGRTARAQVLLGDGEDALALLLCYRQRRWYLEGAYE

Assay [1] concerns the target Strep-tagged ImuA’ (M. smegmatis) (M. smegmatis) (UniProt A0QSV9). Nature of the assay: pull-down.
For assay [2], the target named is His-tagged ImuB, wild type (M. smegmatis) (M. smegmatis) (UniProt A0QSW0). Kind of assay: SEC. In general terms: SEC sorts molecules by how far they enter the pores of the column.
Assay [3] has the same target. Kind of assay: pull-down.

No constants are given. Whether binding was seen depends on the method and setting. Binding calls can cover weak binding; strength is not graded here. For part of these data: Binding seen in cells or lysates may run through a third protein.

With “His-tagged ImuB, wild type (M. smegmatis) (from UniProt A0QSW0)”, the binding result in assay [1] was “binds”.

“Strep-tagged ImuA’ (M. smegmatis) (from UniProt A0QSV9)”: the binding result in assay [2] and in assay [3] was “binds” throughout.
